Test [1] addresses FBXO42 (bait of the IP-MS experiment) (UniProt Q6P3S6). In words: affinity purification with mass spectrometry.
The target in a further test is T1, Flag PP4C (UniProt P60510).
T1 sequence: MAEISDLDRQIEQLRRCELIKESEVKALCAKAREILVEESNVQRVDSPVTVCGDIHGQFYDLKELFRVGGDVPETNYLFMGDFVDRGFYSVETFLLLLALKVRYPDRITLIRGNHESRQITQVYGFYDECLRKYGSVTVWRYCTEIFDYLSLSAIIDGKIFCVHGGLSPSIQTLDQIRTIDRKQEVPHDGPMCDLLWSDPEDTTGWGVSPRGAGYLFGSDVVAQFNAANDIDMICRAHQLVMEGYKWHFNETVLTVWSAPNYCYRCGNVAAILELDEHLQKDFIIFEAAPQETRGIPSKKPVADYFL
The test is described as follows: affinity purification with mass spectrometry.

By UniProt entry, the sequences of proteins in these tests, tags left out.
UniProt Q6P3S6: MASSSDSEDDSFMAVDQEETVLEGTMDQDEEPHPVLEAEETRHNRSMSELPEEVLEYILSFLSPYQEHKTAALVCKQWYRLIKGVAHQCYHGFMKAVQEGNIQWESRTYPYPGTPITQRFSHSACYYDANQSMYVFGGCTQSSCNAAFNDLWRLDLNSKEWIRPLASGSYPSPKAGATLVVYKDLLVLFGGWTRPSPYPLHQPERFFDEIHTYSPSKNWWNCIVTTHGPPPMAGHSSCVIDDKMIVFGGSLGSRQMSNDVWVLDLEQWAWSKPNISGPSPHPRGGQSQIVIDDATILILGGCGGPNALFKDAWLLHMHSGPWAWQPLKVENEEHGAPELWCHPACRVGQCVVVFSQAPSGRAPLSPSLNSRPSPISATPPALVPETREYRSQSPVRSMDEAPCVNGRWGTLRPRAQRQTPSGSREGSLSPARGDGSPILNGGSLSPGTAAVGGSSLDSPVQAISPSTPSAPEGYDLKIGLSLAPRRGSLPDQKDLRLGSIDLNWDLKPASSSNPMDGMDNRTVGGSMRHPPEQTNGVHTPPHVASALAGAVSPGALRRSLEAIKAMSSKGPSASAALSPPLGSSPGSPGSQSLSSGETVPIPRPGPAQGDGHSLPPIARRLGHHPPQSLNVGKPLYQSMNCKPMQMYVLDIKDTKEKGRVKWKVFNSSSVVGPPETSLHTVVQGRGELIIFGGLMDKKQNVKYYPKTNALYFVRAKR
UniProt Q5MIZ7: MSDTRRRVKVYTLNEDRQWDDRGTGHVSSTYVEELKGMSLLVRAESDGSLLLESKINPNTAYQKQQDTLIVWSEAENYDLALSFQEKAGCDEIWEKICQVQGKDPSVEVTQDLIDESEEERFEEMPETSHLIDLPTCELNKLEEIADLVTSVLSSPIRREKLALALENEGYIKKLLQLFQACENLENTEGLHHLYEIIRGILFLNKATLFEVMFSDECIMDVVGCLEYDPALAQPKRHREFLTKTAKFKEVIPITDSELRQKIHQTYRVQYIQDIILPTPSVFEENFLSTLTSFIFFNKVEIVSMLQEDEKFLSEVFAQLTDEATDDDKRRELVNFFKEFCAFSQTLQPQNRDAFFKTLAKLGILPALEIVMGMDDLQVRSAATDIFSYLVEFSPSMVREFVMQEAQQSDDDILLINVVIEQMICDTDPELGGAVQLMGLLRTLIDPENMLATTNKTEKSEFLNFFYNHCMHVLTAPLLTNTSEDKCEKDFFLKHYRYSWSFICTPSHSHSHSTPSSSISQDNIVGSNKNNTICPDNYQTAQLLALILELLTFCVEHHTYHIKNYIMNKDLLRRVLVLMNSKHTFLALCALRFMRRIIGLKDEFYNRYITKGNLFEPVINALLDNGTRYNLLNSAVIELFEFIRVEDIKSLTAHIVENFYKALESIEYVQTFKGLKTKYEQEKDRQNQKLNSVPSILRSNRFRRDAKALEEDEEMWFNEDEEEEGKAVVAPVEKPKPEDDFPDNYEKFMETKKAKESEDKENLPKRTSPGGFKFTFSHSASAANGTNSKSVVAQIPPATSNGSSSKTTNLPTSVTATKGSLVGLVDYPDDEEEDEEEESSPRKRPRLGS

No constants are given. Whether binding was seen depends on the method and setting. Binding seen in cells or lysates may run through a third protein. These calls come from enrichment with a bait or labelling near it, and not all partners need be listed. For some assays here: Where a sequence is shown, tags or fusion partners need not be part of it.

As to “PP4R3B (SMEK2) (from UniProt Q5MIZ7 1-849)”, the binding result (in test [1]; with Flag PP4C) was “binds” each time.
